Experimental data taken from patent US11179412B2, “Methods of treating conditions involving elevated inflammatory response” (University of Pittsburgh—Of the Commonwealth System of …, priority 2017, dated 2021).
At least one structure is not confirmed: it was looked up by name or label, or the drawing left a doubt.

Key:
Conditions in all cases: 10 μM
[1] = tested on: STING signaling (TBK1, IRF3, p65, ALK, EGFR, AKT phosphorylation) in THP1 cells; assay: Western blot of STING pathway protein phosphorylation, THP1; type: cell-based, human
Method: (§1) For immunoblotting, cells were lysed in Cell Lysis Buffer (#9803, Cell Signaling Technology) with protease inhibitor cocktail (Promega), phosphatase inhibitor cocktail (Sigma), and 1 mM Na3VO4 (70). Cleared lysates were resolved by SDS-PAGE (#3450124, Bio-Rad) and then transferred onto PVDF membranes (#1704273, Bio-Rad). The membranes were blocked with Tris-buffered saline Tween 20 (TBST) containing 5% skim milk for 1 h at room temperature and then incubated with the indicated primary antibodies (1:1000-1:5000) overnight at 4° C. After being washed with TBST, the membranes were incubated with an HRP-linked anti-mouse IgG secondary antibody (#7076, Cell Signaling Technology) or HRP-linked anti-rabbit IgG secondary antibody (#7074, Cell Signaling Technology) for 1 h at room temperature. The membranes were washed three times in TBST and then visualized and analyzed with a ChemiDoc Touch Imaging System (#1708370, Bio-Rad). The intensities of bands were analyzed with Image Lab software.

[2] = tested on: STING signaling (TBK1, IRF3, p65, ALK, EGFR, AKT phosphorylation) in RAW264.7 cells; assay: Western blot of STING pathway protein phosphorylation, RAW264.7; type: cell-based, mouse
Method: as §1

[3] = tested on: STING signaling (TBK1, IRF3, p65, ALK, EGFR, AKT phosphorylation) in iBMDMs; assay: Western blot of STING pathway protein phosphorylation, iBMDMs; type: cell-based, mouse
Method: as §1

[4] = 3′3′-cGAMP 10 μg/ml, three to 16 hours

`COc1cc(N2CCC(N3CCN(C)CC3)CC2)ccc1Nc1ncc(Cl)c(Nc2ccccc2P(C)(C)=O)n1` [AP26113] was tested, and the “3′3′-cGAMP-induced p-TBK1” value [1, 4] was “time-dependently reduced”, the “3′3′-cGAMP-, c-di-AMP-, and DMXAA-induced p-IRF3 and p-p65” value ([1]; ligand 10 μg/ml) was “inhibited” and the “c-di-AMP- or DMXAA-induced p-TBK1” value ([1]; ligand 10 μg/ml, 16 hours) was “inhibited”. For the same compound, the “3′3′-cGAMP-induced p-TBK1” value [2, 4] was “time-dependently reduced”, the “3′3′-cGAMP-, c-di-AMP-, and DMXAA-induced p-IRF3 and p-p65” value ([2]; ligand 10 μg/ml) was “inhibited” and the “c-di-AMP- or DMXAA-induced p-TBK1” value ([2]; ligand 10 μg/ml, 16 hours) was “inhibited”. For the same compound, the “3′3′-cGAMP-induced p-TBK1” value [3, 4] was “time-dependently reduced”, the “3′3′-cGAMP-, c-di-AMP-, and DMXAA-induced p-IRF3 and p-p65” value ([3]; ligand 10 μg/ml) was “inhibited” and the “c-di-AMP- or DMXAA-induced p-TBK1” value ([3]; ligand 10 μg/ml, 16 hours) was “inhibited”.
